PubChem BioAssay AID504744, Drosophila RNAi Screening Center | 2011

- Assay: 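Identify dsRNAs that increase or decrease phospho-dAkt after insulin treatment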 (primary screen)
- Cell system: Drosophila Kc167 cells
- Reagent: long dsRNA against Drosophila genes, 250 ng dsRNA per well of a 384-well plate
- Duration: 3 days of knock-down, then overnight serum-free starvation before stimulation
- Conditions: bovine insulin at 387 nM for 10 minutes after 12 h without serum
- Detection: 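Per-well phospho-dAkt level from an in-cell fluorescent antibody stain, divided by a DNA-dye signal; log2 residuals turned into z-scores that take cell number into account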
- Active means: 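Hit in the insulin screen when the two-replicate mean z-score is more extreme than plus or minus 2.5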
In all, the deposit lists about 23,000 reagents; shown is a random part of those with a known target gene and a result. Of all reagents, 98 (0.43%) were called active. 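Only hit calls are given; the phospho-dAkt signals, z-scores and hit direction were not deposited.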 A plus sign joins genes that one reagent is predicted to hit.

target,dsRNA,Call
CG10576,DRSC09745,inactive
Dtd (D-aminoacyl-tRNA deacylase),DRSC15362,inactive
CG30393,DRSC04253,inactive
Rsph9 (Radial spoke head protein 9),DRSC01594,inactive
CG3014,DRSC15458,inactive
CG1695,DRSC20538,inactive
alt (aluminum tubes),DRSC15315,inactive
Josd (Josephin domain containing),DRSC18323,inactive
Tango1 (Transport and Golgi organization 1),DRSC02127,inactive
CG30496,DRSC06805,inactive
eIF3a (eukaryotic translation initiation factor 3 subunit a),DRSC12339,inactive
Exn (Ephexin),DRSC09673,inactive
Exn (Ephexin),DRSC10077,inactive
CG17982,DRSC18143,inactive
CG34247,DRSC09933,inactive
CG3528,DRSC00611,inactive
Alp7 (Alkaline phosphatase 7),DRSC04355,inactive
CG11178,DRSC19396,inactive
Gr47a (Gustatory receptor 47a),DRSC06221,inactive
CG10445,DRSC14247,inactive
CG5968,DRSC02916,inactive
CG15099,DRSC06528,inactive
sqd (squid),DRSC15160,inactive
sqd (squid),DRSC17066,inactive
CG13288,DRSC09962,inactive
CG7794,DRSC16313,inactive
Hexo2 (Hexosaminidase 2),DRSC18671,inactive
CG42784,DRSC02534,inactive
CG42784,DRSC02535,inactive
CG42784,DRSC22804,inactive
flw (flapwing),DRSC17992,inactive
flw (flapwing),DRSC18774,inactive
CG31189,DRSC16198,inactive
Cyp12d1-d + Cyp12d1-p,DRSC21507,inactive
CG6660,DRSC16087,inactive
mask (multiple ankyrin repeats single KH domain),DRSC15370,inactive
mask (multiple ankyrin repeats single KH domain),DRSC16005,inactive
mask (multiple ankyrin repeats single KH domain),DRSC16018,inactive
CG13748,DRSC06419,inactive
Dredd (Death related ced-3/Nedd2-like caspase),DRSC18461,inactive
CG12384,DRSC06145,inactive
CG13460,DRSC10007,inactive
Hr51 (Hormone receptor 51),DRSC06627,inactive
Hr51 (Hormone receptor 51),DRSC22829,inactive
Picot,DRSC07508,inactive
Dic4,DRSC10317,inactive
CG11123,DRSC06040,inactive
Herp (Homocysteine-induced endoplasmic reticulum protein),DRSC02394,inactive
CG12679,DRSC20493,inactive
pcx (pecanex),DRSC18186,inactive
pcx (pecanex),DRSC18187,inactive
pcx (pecanex),DRSC18188,inactive
pcx (pecanex),DRSC18189,inactive
pcx (pecanex),DRSC18190,inactive
pcx (pecanex),DRSC18816,inactive
mRpS33 (mitochondrial ribosomal protein S33),DRSC14239,inactive
Cat (Catalase),DRSC11110,inactive
CG17010,DRSC02559,inactive
CG5910,DRSC11786,inactive
y (yellow),DRSC18853,inactive
CG34205,DRSC04149,inactive
CG34205,DRSC22823,inactive
CG33978,DRSC17106,inactive
Cul5 (Cullin 5),DRSC14723,inactive
CG9568,DRSC03265,inactive
Ets21C (Ets at 21C),DRSC00751,inactive
grau (grauzone),DRSC04691,inactive
fun (retired record),DRSC12300,inactive
Glut1 (Glucose transporter 1),DRSC07927,inactive
Glut1 (Glucose transporter 1),DRSC08662,inactive
mib1 (mind bomb 1),DRSC10550,inactive
Scm (Sex comb on midleg),DRSC16853,inactive
CG14286,DRSC14767,inactive
Lcch3 (Ligand-gated chloride channel homolog 3),DRSC20257,inactive
Lcch3 (Ligand-gated chloride channel homolog 3),DRSC22175,inactive
CG17646,DRSC00507,inactive
CG7914,DRSC20068,inactive
CG4615,DRSC17491,inactive
CG4615,DRSC18376,inactive
CR14499 (retired record),DRSC06470,inactive
CG14330,DRSC14809,inactive
Arc42 (Activator-recruited cofactor subunit 42),DRSC14340,inactive
Arc42 (Activator-recruited cofactor subunit 42),DRSC15627,inactive
CG6685,DRSC10695,inactive
Tailor,DRSC12526,inactive
2mit,DRSC14194,inactive
2mit,DRSC15224,inactive
CheB38c (Chemosensory protein B 38c),DRSC02389,inactive
CG3345,DRSC00596,inactive
CG34204,DRSC03897,inactive
CG31419,DRSC15771,inactive
CG31380,DRSC15688,inactive
Jon99Ciii (Jonah 99Ciii),DRSC16859,inactive
Or85b (Odorant receptor 85b),DRSC16765,inactive
CG8578,DRSC20114,inactive
Ir100a (Ionotropic receptor 100a),DRSC14329,inactive
CG30376,DRSC05086,inactive
Rbf2 (Retinoblastoma-family protein 2),DRSC16816,inactive
CG13694,DRSC00363,inactive
D1 (D1 chromosomal protein),DRSC16638,inactive
Set,DRSC16861,inactive
CG6891,DRSC20016,inactive
Fip1 (Factor interacting with poly(A) polymerase 1),DRSC12147,inactive
Nmnat (Nicotinamide mononucleotide adenylyltransferase),DRSC14644,inactive
CG15577,DRSC18065,inactive
sas (stranded at second),DRSC12631,inactive
Srr (Serine racemase),DRSC16382,inactive
CG11970,DRSC14157,inactive
CG12729,DRSC17884,inactive
CG11241,DRSC11641,inactive
CG11241,DRSC22165,inactive
CG6511,DRSC10656,inactive
Arp10 (Actin-related protein 10),DRSC19448,inactive
kin17,DRSC11890,inactive
CG1143,DRSC08188,inactive
Cpr49Ac (Cuticular protein 49Ac),DRSC07199,inactive
CG17027,DRSC10238,inactive
CG14877,DRSC15001,inactive
Rae1,DRSC04577,inactive
RpLP0 (Ribosomal protein LP0),DRSC11878,inactive
RpLP0 (Ribosomal protein LP0),DRSC22110,inactive
Tusp,DRSC15838,inactive
stg (string),DRSC17071,inactive
CG6983,DRSC10757,inactive
Clic (Chloride intracellular channel),DRSC19364,inactive
CG18538,DRSC06765,inactive
Spn38F (Serpin 38F),DRSC03616,inactive
Gr64d + Gr64e,DRSC08446,inactive
Ets96B,DRSC16127,inactive
Jon44E (Jonah 44E),DRSC07216,inactive
CG5447,DRSC15801,inactive
CG14471 (retired record),DRSC04865,inactive
Rrp1 (Recombination repair protein 1),DRSC00784,inactive
Klf15 (Kruppel-like factor 15),DRSC17742,inactive
BomBc2 (Bomanin Bicipital 2),DRSC06502,inactive
CG12880,DRSC14568,inactive
Atg17 (Autophagy-related 17),DRSC12221,inactive
CG12115,DRSC17811,inactive
CG10949,DRSC02112,inactive
CG32544,DRSC20033,inactive
Ttc19 (Tetratricopeptide repeat domain 19),DRSC02474,inactive
CG10185,DRSC14205,inactive
Tmtc3 (Transmembrane O-mannosyltransferase targeting cadherins 3),DRSC04444,inactive
CG30279 (retired record),DRSC22417,inactive
Cyp6a2 (Cytochrome P450 6a2),DRSC05014,inactive
Brr2 (Brr2 U5 snRNP complex subunit),DRSC10559,inactive
CG8960,DRSC08612,inactive
Nup153 (Nucleoporin 153kD),DRSC19904,inactive
CG11629,DRSC03695,inactive
Ant2 (Adenine nucleotide translocase 2),DRSC19330,inactive
Ir93a (Ionotropic receptor 93a),DRSC15212,inactive
Ir93a (Ionotropic receptor 93a),DRSC15213,inactive
phu (phurba tashi),DRSC16390,inactive
CG31391,DRSC16047,inactive
Lgr1 (Leucine-rich repeat-containing G protein-coupled receptor 1),DRSC16675,inactive
Pld (Phospholipase D),DRSC04854,inactive
CR32745 (pseudo),DRSC17442,inactive

20 successive entries already listed:
target,dsRNA,Call
CG14877,DRSC15001,inactive
Rae1,DRSC04577,inactive
RpLP0 (Ribosomal protein LP0),DRSC11878,inactive
RpLP0 (Ribosomal protein LP0),DRSC22110,inactive
Tusp,DRSC15838,inactive
stg (string),DRSC17071,inactive
CG6983,DRSC10757,inactive
Clic (Chloride intracellular channel),DRSC19364,inactive
CG18538,DRSC06765,inactive
Spn38F (Serpin 38F),DRSC03616,inactive
Gr64d + Gr64e,DRSC08446,inactive
Ets96B,DRSC16127,inactive
Jon44E (Jonah 44E),DRSC07216,inactive
CG5447,DRSC15801,inactive
CG14471 (retired record),DRSC04865,inactive
Rrp1 (Recombination repair protein 1),DRSC00784,inactive
Klf15 (Kruppel-like factor 15),DRSC17742,inactive
BomBc2 (Bomanin Bicipital 2),DRSC06502,inactive
CG12880,DRSC14568,inactive
Atg17 (Autophagy-related 17),DRSC12221,inactive
